Data taken from ChEMBL document CHEMBL3988442, “University of Dundee, Small-Polar-MMV Screening Library” (2021).

Mtb growth Cornell: 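Whole-cell assay for inhibitors of Mycobacterium tuberculosis growth, labelled Cornell in the record; the read-out is not stated. The concentration is filed as 10 mM, unlikely as a test dose, so the dose is not known. Higher means stronger inhibition (inferred from two other growth screens of the library). About 53,000 compounds were tested under these conditions; 1.7% (about 900) showed 50% or more at least once.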
Mtb heat-shock: 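Assay on Mycobacterium tuberculosis, filed only as a heat shock assay from Cornell; the read-out is not stated. The concentration is filed as 10 mM, unlikely as a test dose, so the dose is not known. The record gives no direction; compounds that gave an IC50 in retests scored well above the rest, so higher reads as stronger inhibition. Of about 69,000 compounds tested this way, about 930 (1.4%) reached 50% or more in at least one test.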

Results are given as percent effect.
The controls that fix the scale are not given in the record; negative values are as filed.
Compounds were drawn at random from those tested, without regard to their results.
A dash means the value is not listed here; it may have been measured.

compound,Mtb growth Cornell,Mtb heat-shock
O=C(NC1CCNCC1)C1(N2CCCCC2)Cc2ccccc2C1,-17.93,4.231
CCc1[nH]nc(NC(=O)c2cc[nH]n2)c1C,-,23.46
O=C(NCc1cccnc1)c1nc2c(s1)CCCN2c1ncccn1,-16.6,-18.74
O=C(O)C(F)(F)F.[H][C@]12CCC[C@@]1(COCc1cccnc1)CN(C(=O)c1ncccn1)C2,-15.06,-21.72
COC(=O)Cn1c(=O)nc2n1C(=O)N(c1ccc(C)cc1)C2,12.44,3.714
CCN1CCC2(CC1)NC(=O)c1cc(Br)ccc1-n1nnnc12,19.53,9.241
[H][C@]12CCN(c3ncc(CC)cn3)C[C@@]1([H])OCCN(C(C)=O)C2,-0.425,-10.06
Cc1cc2nc(SCC(=O)N3CCCC3)n(C(C)C)c(=O)c2[nH]1,-14.75,-25.24
Cc1nc(CC(=O)NS(=O)(=O)c2cccc3cnccc23)cs1,15.86,-52.74
Clc1ccc(C2(CNC3=NCCN3)CCCC2)cc1.I,-10.54,20.92
COc1ccccc1CN1CCC(O)(Cn2ccc3ncccc32)CC1,27.26,-9.072
CCC(C)(C)n1nnnc1C(c1cccs1)N1CCc2ccccc21 (stereo not shown),26.96,0.1492
O=C(NCC1CCOC1)Nc1ccc(OCC(F)(F)F)nc1 (stereo not shown),15.72,3.959
CCOCCN1CCN(CC2(O)CCCCC2)CC1,11.23,9.944
COC(=O)COc1nc(C(C)C)no1,22.35,9.887
CCN(CCCNc1ncnc2cc(F)c(F)cc12)S(C)(=O)=O,-3.753,3.732
Cc1cc(F)ccc1N1CCCC(NS(=O)(=O)CCCF)C1=O (stereo not shown),-10.67,-0.4931
CCc1ncc(C(=O)N2CCOCC2CC(=O)c2ccccc2)s1 (stereo not shown),2.3,-31.57
Cn1nccc1-c1ncc2c(c1C(=O)O)CCN(Cc1ccncc1)C2.O=C(O)C(F)(F)F.O=C(O)C(F)(F)F,-18.5,-31.29
[H][C@@]12CCN(C(=O)NC(C)C)CC[C@]1(C(=O)Nc1cccnc1)CCN2C,4.526,41.91
CCN(CC)C(=O)c1ccn(COc2cc(C)cc(C)c2)n1,-,15.42
O=C(O)c1ccccc1CN1CCC2(Cc3ccccc3CNC2=O)C1 (stereo not shown),-,-35.23
CN(CC(=O)N1CCCCC1Cn1cccn1)C1CC1 (stereo not shown),-,-25.17
CN(C)C(=O)N1CCn2c(Cn3cccn3)cnc2C1,0.8298,-10.2
CC1CN(C)CCN1CC(=O)NCCOc1cccc(F)c1 (stereo not shown),-,-16.45
O=C(NCCn1ccc(-c2ccccn2)n1)C1CCC1,-,-22.71
CCc1nc(C2CCCN2CCCS(N)(=O)=O)no1 (stereo not shown),-,9.735
CN(C)CCNc1c(-c2ccccc2)c(=O)c1=O,-,-28.57
O=C1NCCCCC1NC(=O)C1(c2ccccc2)CCOCC1 (stereo not shown),-14.94,-12.49
COc1cccc(CN(C)CCCn2cnc3c(N)ncnc32)c1,19.57,-30.76
CC(=O)N[C@H]1CN(CC(=O)NCc2ccccc2C)C[C@@H]1C(C)C,25.57,10.6
COc1cccc(CN2CCCCC2Cn2nc(C)nc2C)c1 (stereo not shown),-,-5.659
CCNC(=O)[C@@H]1CCCN1[C@@H](C(=O)NC)c1ccccc1.Cl,-,-4.338
CCc1nncn1CCNC(=O)N1CCN(Cc2ccccc2)CC1,-,-3.215
O=c1[nH]c2c(c(=O)n1C1CCCCC1)CCC2Nc1ccc(Cl)cc1 (stereo not shown),9.328,5.769
O=C(c1cccc(CNCC2CNc3ccnn3C2)c1)N1CCCC1 (stereo not shown),-,46.14
COc1cc(C)c(-c2ccc(F)c3c2OC(CN)C3)cc1C (stereo not shown),18.19,51.67
Cc1nc(C2(NCc3c(C)nn(C)c3N3CCOCC3)CCC2)no1,-39.78,2.365
CN(C)C(=O)c1cn[nH]c1C1CCCN1Cc1nccn1C.O=CO (stereo not shown),-4.283,-23.16
CC(C)C(=O)N1CCC(c2nc3c([nH]2)CCCNC3=O)CC1,-52.99,22.09
CC(=O)Nc1nc(C(=O)N2CCCC2c2noc(C(C)C)n2)cs1 (stereo not shown),-,8.053
NC(=O)C1Cn2ccnc2C2(CCN(C(=O)NC3CCCC3)CC2)O1.O=C(O)C(F)(F)F (stereo not shown),9.522,2.522
CSCC(=O)N[C@H]1CN(CC2CCOCC2)C[C@@H]1c1ccccc1,-,-42.16
[H][C@@]12CN(c3nnc(C)s3)C[C@H](C(=O)NCCOC)[C@]1([H])CCO2,-,2.294
CNC(=O)NC(=O)C(C)N1CCCc2cc(OC)ccc2C1 (stereo not shown),21.18,20.62
COc1cc2c(cc1CNC(Cc1cccs1)c1nccs1)OCCO2.Cl (stereo not shown),34.75,2.723
CNC(=O)CN1CCC(NC(=O)N(C)Cc2cc(C)on2)CC1,-,-1.178
O=C(O)c1cc(-c2ccn(CC3CC3)n2)n2ccccc12,99.83,-0.3144
Cc1cc(-c2cc(F)ccc2C(=O)O)nc(C2CCCN(C)C2)n1 (stereo not shown),0.614,-19.86
CN(C)c1ccc(C(=O)N2CCCN(C3CCCCC3)CC2)cn1,43.53,10.73
Cn1cnc(S(=O)(=O)NCC2(O)CCOc3ccccc32)c1 (stereo not shown),-4.861,6.497
Cc1cnn(CC2CCCN2C(=O)c2sccc2-n2cnnn2)c1 (stereo not shown),6.169,-5.81
c1cnnc(N2CCCC(NCc3ccncc3)C2)c1 (stereo not shown),-23.93,17.47
O=C(O)CN(Cc1ccsc1)CC1CCCO1 (stereo not shown),-19.44,20.1
CC(=O)N1CC2(CCN(C(=O)c3ccc4c(c3)OCCO4)CC2)C1,-,-11.63
[H][C@@]12CCN(C(C)=O)CC[C@]1(C(=O)Nc1cccnc1)CCN2C,-10.94,24.91
COC(=O)NCC(=O)NCC1(c2c(F)cccc2F)CCCC1,14.24,-1.015
COc1ccc(CNCc2c(C(C)C)nn(C)c2OC)cn1,-,-6.815
CCC[C@H]1CN(S(C)(=O)=O)C[C@@H]1NC(=O)Cc1ccc(OC)cc1,-9.468,-26.76
O=C(N1CCCCC1)N1CCN(c2ccc(Cl)nn2)C(=O)C1,-,-11.69
Cc1nnc(NC(=O)NCCN(C(=O)OC(C)(C)C)C2CC2)s1,-16.13,-2.397
Cc1cc(CN2CCN(C(C)c3nc(C(C)C)no3)CC2)no1 (stereo not shown),-1.591,-13.55
Nc1cc(C(=O)NCC2CCN(Cc3ccncc3F)C2)ccn1 (stereo not shown),17.01,-7.741
O=C(CCCn1cncn1)NC1(c2ccc(Cl)cc2)CCC1,-,-6.196
Cl.c1cnc(Nc2cncc(C3CCCN3)n2)cn1 (stereo not shown),17.9,54.88
Cc1ccc(NC2CCN(C(=O)CCc3ccsc3)CC2)nn1,-,0.3309
CC(C)N(C)C(=O)C1CCC2(CCNCC2)O1.Cl (stereo not shown),-8.284,7.494
COc1ccc(C)cc1CN(C)Cc1nc2c(cnn2C)c(=O)[nH]1,23.57,-7.225
Cc1noc(C2CCCN(C(=O)c3cc(Cl)cn3C)C2)n1 (stereo not shown),5.684,-1.242
CN1CCC(N(Cc2ccncc2)Cc2nc3c(s2)CCCC3)CC1,28.25,3.736
CCN1CC2(CCC1=O)CCN(Cc1cccc(OC(F)F)c1)CC2,-17.75,-21.89
CCC(C)N(Cc1cnc(NCC(=O)O)nc1)Cc1ccsc1 (stereo not shown),7.26,-17.76
COC1(CNS(=O)(=O)c2ccccc2Br)CCSC1 (stereo not shown),12.58,4.563
[H][C@@]12CCN(C(=O)c3nnc4n3CCCC4)C[C@@]([H])(CC1)N2C,19.52,0.6139
CCn1nc(C)cc1C(=O)OCCNC(=O)c1ccccc1,-,21.73
FC1(F)CCN(Cc2ccccn2)CC12CCN(c1cccnc1)C2.O=C(O)C(F)(F)F.O=C(O)C(F)(F)F.O=C(O)C(F)(F)F (stereo not shown),-1.354,-10.62
O=C(CCN1CCCCO1)NCCSc1cnn[nH]1,-,10.19
Cc1nn2cccnc2c1C(=O)N1CCCC(n2ccnc2)C1 (stereo not shown),-,5.233
CC(C)(O)CN1CCC(=O)N(Cc2ccco2)Cc2cc(F)ccc21,-0.2317,-9.768
Fc1cccc(OC2CCN(Cc3ncc[nH]3)CC2)c1,-7.912,15.98
Cc1cnn(CC2CCCN2c2ncnc3sccc23)c1 (stereo not shown),-31.56,-13.39

Repeated from the top, 7 entries:

| compound | Mtb growth Cornell | Mtb heat-shock |
|---|---|---|
| `O=C(NC1CCNCC1)C1(N2CCCCC2)Cc2ccccc2C1` | -17.93 | 4.231 |
| `CCc1[nH]nc(NC(=O)c2cc[nH]n2)c1C` | - | 23.46 |
| `O=C(NCc1cccnc1)c1nc2c(s1)CCCN2c1ncccn1` | -16.6 | -18.74 |
| `O=C(O)C(F)(F)F.[H][C@]12CCC[C@@]1(COCc1cccnc1)CN(C(=O)c1ncccn1)C2` | -15.06 | -21.72 |
| `COC(=O)Cn1c(=O)nc2n1C(=O)N(c1ccc(C)cc1)C2` | 12.44 | 3.714 |
| `CCN1CCC2(CC1)NC(=O)c1cc(Br)ccc1-n1nnnc12` | 19.53 | 9.241 |
| `[H][C@]12CCN(c3ncc(CC)cn3)C[C@@]1([H])OCCN(C(C)=O)C2` | -0.425 | -10.06 |